Test results from patent US6509027B2, “Injectable pharmaceutical composition comprising coated particles of camptothecin” (priority 2001, dated 2003).
At least one structure is not confirmed: it was looked up by name or label, or the drawing left a doubt.

Test system: A375 human melanoma xenografts
Assay: A375 human melanoma xenograft study 1, tumor growth delay method
Format: in vivo, athymic nude mice
Settings: Group 7: 150 mg/kg I.P., qd×5
Source text: The following study evaluates two intravenous formulations according to the present invention against human tumor xenografts in athymic nude mice. The study used the A375 human melanoma xenograft model to compare the in vivo antitumor efficacy of I.V. 9-nitro-camptothecin, in vehicles containing IDD-P which provides a particulate suspension of 9-nitro-camptothecin, and IDD-D which provides a droplet suspension of 9-nitro-camptothecin, to the efficacy of oral 9-nitro-camptothecin and intraperitoneal CAMPTOSAR®, HYCAMTIN®, and DTIC®. Examples 1 and 2 describe the compositions of IDD-P (FIG. 1; formulation 1-F) and IDD-D respectively.
In order to assess antitumor efficacy, groups of athymic nude mice (n=10) bearing ˜72-mg A375 melanomas were treated intravenously on the 5/2/5 schedule with 9-nitro-camptothecin in IDD-P at 3.0 mg/kg or 1.5 mg/kg and 9-nitro-camptothecin in IDD-D at 2.0 mg/kg or 1.0 mg/kg.
Female nude mice were 16 weeks of age (NCR-nuJBr; Taconic Farms) for the A375 study. […]
An A375 melanoma fragment (1 mm 3) was implanted subcutaneously in the flank of each nude mouse. […] Estimated tumor weight was calculated using the formula: [formula] […]
The tumor growth delay (TGD) method was used to assess efficacy. Tumor dimensions were measured twice weekly until the experiment was terminated on Day 62. […]

## CN(C)/N=N/c1[nH]cnc1C(N)=O [DTIC®, dacarbazine]
  complete regression (CR) responses on Day 62: single and one
